Measurements as given in patent US20170044238A1.
These are yes or no findings as the source states them, for the method shown. Some entries that bind do so weakly or less than the wild type.

How the values were obtained:
[1] = target: T1, human lysozyme (human) (UniProt P61626); test: phage ELISA, phage-displayed VL on immobilized human lysozyme
T1 sequence (looked up): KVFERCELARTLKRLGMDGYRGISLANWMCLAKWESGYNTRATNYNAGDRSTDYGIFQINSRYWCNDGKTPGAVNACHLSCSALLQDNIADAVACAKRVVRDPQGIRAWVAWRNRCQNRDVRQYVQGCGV

[2] = target: T1, human lysozyme (human); test: SPR, human lysozyme over immobilized VL (FIG. 15)
[3] = target: T1, human lysozyme (human); test: SPR (BIACORE 3000), human lysozyme injected over the immobilized VL
[4] = target: T1, human lysozyme (human); test: SPR, human lysozyme over immobilized VL

Measured: binding

B1: HVLHLYS (antibody, V domains shown, not shown: small tags and cut ends)
V domain: DIQMTQSPSSLSASVGDRVTITCQASQSIYSKLYWYQQKPGKAPKLLCFPASLLWSGVPSRFSCSGSGTDFTLTISNLQPEDFATYYCLQNAADPHRTFGHGTKVRL
binds: [1] | [2] | [3] | [4]
